We go through 63 molecules from PubChem BioAssay AID493014 (National Center for Advancing Translational Sciences (NCATS), 2011).

By AC50 is commonly meant the midpoint of the concentration-response curve, whichever way the signal moves.

The nature of the experiment: qHTS Assay to Find Inhibitors of Chronic Active B-Cell Receptor Signaling. To be noted: ABC-DLBCL IkBa-CBG/CBR reporter, luminescence ratio (green luciferase fused to IkBa over red control in TMD8 lymphoma cells), 4 h. A digest of the protocol:
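Cell line TMD8 (human ABC DLBCL), stably expressing tet-inducible CBG68-IkBa fusion and CBR; IMDM/0.5% FBS; cpd up to 46 uM; dox induction, 4 h, 37C/5% CO2; dual luminescence; green/red ratio; MG132 control.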
(qHTS replaces the single test concentration by a dilution series.)

[1] abbreviates: measured here: CBR red luminescence, cell number.
[2] abbreviates: measured here: IkBa-CBG green luminescence.

Some of the results follow. Shown are side measurements of this screen, not its main read-out; they come without a call. Most of these compounds were active or inconclusive in the main read-out, so they are no random draw. Potencies come from curve fits of mixed quality, noted in brackets.

With `COc1ccc(Cl)cc1C(=O)Nc1ccc(Br)c(C)n1`, the half-maximal activity concentration (AC50) under setting [1] was 35.5 µM [rising, partial curve, poor fit].
Same read-out and setting: the figure for `Cc1cc(Nc2cccc(Cl)c2)nc(NCc2ccccc2)n1` is 29.1 µM [falling, single point]; for `CC1(C)Cc2cccc(C(=O)Nc3ccc(F)cc3F)c2O1` it is 20 µM [rising, partial curve, poor fit]; for `COc1ccc(CCNC(=O)c2ccc3c(c2)OCO3)cc1` it is 11.2 µM [falling, partial curve, poor fit].
On the same count and under the same terms, the figure for `Cc1ccc(-c2cc(-c3cccc(F)c3)n[nH]2)c(O)c1` is 7.31 µM [falling, partial curve]; for `CN(C)C=C1C(=O)c2ccccc2C1=O` it is 23.1 µM [falling, single point].
With `C=CCc1ccccc1OCC(O)CN1CCN(C(=O)OCC)CC1` (stereo not drawn), under setting [1], the AC50 is 17.8 µM [falling, partial curve, poor fit].
For `Cc1cc(-c2ccc(C(C)C)c(S(=O)(=O)N3CCN(c4ccccc4)CC3)c2)on1`, under setting [1], the AC50 was 7.94 µM [rising, partial curve, poor fit].
The same measure, in the same setting: the figure for `Cc1ccc(S(=O)(=O)N2CCOCC2)cc1C(=O)N1CCN(S(=O)(=O)c2cccc(F)c2)CC1` is 5.8 µM [falling, single point]; for `O=C(Nc1cccc(Oc2ccc(C(=O)O)c(C(=O)O)c2)c1)c1ccc(-c2ccccc2)cc1` it is 1.12 µM [falling, full curve]; for `CC(C)c1ccc(NC(=O)c2ccc(NC3=NC4CS(=O)(=O)CC4S3)cc2)cc1` (stereo not drawn) it is 3.98 µM [rising, full curve, poor fit].
Take `CC(CC(=O)Nc1cccc(Cl)c1)c1ccccc1` (stereo not drawn): under setting [1], the AC50 was 1.16 µM [rising, full curve, poor fit].
The same measure, in the same setting: the figure for `O=C1OCCC1Sc1nnc(-c2ccc3c(c2)OCO3)o1` (stereo not drawn) is 3.16 µM [falling, partial curve]; for `COc1cc(C(=O)N2CC(C)OC(C)C2)c([N+](=O)[O-])cc1OC` (stereo not drawn) it is 0.00411 µM [rising, full curve, poor fit].
With `C=CCN(CC=C)S(=O)(=O)c1ccc2nc(NC(=O)C(C)C)sc2c1`, under setting [2], the AC50 was 23.1 µM [falling, single point].
As to `Cc1noc(C)c1C(=O)N1CCN(C(=O)c2sc3cc(Cl)ccc3c2Cl)CC1`, the AC50 under setting [1] was 32.6 µM [falling, single point].
For `C/C(=N\NC(=O)c1ccccc1NC(=O)c1ccc(Cl)cc1)c1ccncc1`, the concentration at half-maximal activity (AC50) was 0.794 µM [falling, full curve] under setting [1] and 0.794 µM [rising, full curve, poor fit] under setting [2].
For the molecule `NS(=O)(=O)c1cccc(NC(=O)CSc2nc3ccccc3n2-c2ccccc2)c1`, the AC50 under setting [1] was 12.6 µM [falling, partial curve].
On the same count and under the same terms, the figure for `CCn1c(CNc2ccc(Cl)cc2)nnc1SCc1ccc(C)cc1` is 11.6 µM [falling, partial curve, poor fit].
Same read-out and setting: the same measure for `Cc1ccc(S(=O)(=O)NC(C)(C)CSc2nncn2C)cc1`: 16.4 µM [rising, partial curve]; for `N#C/C(=C\c1ccc(Br)s1)C(=O)N1CCN(c2ccccc2)CC1`: 3.26 µM [rising, partial curve, poor fit].
As for `O=C(NC(=S)N1CCN(c2ccc(Cl)cc2[N+](=O)[O-])CC1)c1cccs1`, the concentration at half-maximal activity (AC50) by setting is: under setting [1], 4.11 µM [rising, full curve, poor fit]; under setting [2], 4.11 µM [falling, full curve].
As to `CCOC(=O)c1c(NC(=O)CSc2nnc(-c3ccncc3)n2Cc2ccco2)sc(C)c1C`, the concentration at half-maximal activity (AC50) under setting [1] is 23.1 µM [falling, partial curve, poor fit].
On to `O=C(Nc1ccc(N2CCCCC2)cc1)c1cccnc1Cl`, for which, under setting [1], the concentration at half-maximal activity (AC50) was 10.3 µM [falling, partial curve, poor fit].
Same read-out and setting: the same measure for `COc1ccc(CNC(=O)c2csc(Cc3ccc(Cl)cc3)n2)cc1`: 15.8 µM [falling, single point]; for `Cc1ccccc1Nc1nc(-c2ccccc2)c(C(=O)Nc2cccnc2)s1`: 2.91 µM [falling, partial curve, poor fit]; for `O=C(OCc1c(-c2ccccc2)ncc2ccccc12)c1ccco1`: 29.1 µM [falling, single point].
The same measure, in the same setting: the figure for `COCCOC(=O)c1nccnc1C(=O)Nc1ccc(S(=O)(=O)N2CCOCC2)cc1` is 35.5 µM [rising, single point]; for `O=C(CCc1nnc2ccc(NCc3ccco3)nn12)Nc1ccccc1F` it is 31.6 µM [falling, single point]; for `O=C1c2ccccc2C(=O)N1CCC1=CCCCC1` it is 0.92 µM [rising, full curve, poor fit].
Turning to `CN(C)S(=O)(=O)c1ccc(C(=O)NC2CCCc3ccccc32)cc1` (stereo not drawn), the half-maximal activity concentration (AC50) under setting [1] is 3.98 µM [falling, full curve, poor fit].
On the same count and under the same terms, the figure for `Cc1cc(=O)oc2cc(NC(=O)c3cc([N+](=O)[O-])ccc3N3CCOCC3)ccc12` is 22.4 µM [falling, single point]; for `COc1cccc(NC(=O)Nc2cc(C)ccc2OC)c1` it is 3.16 µM [rising, single point].
For `Cc1ccccc1NC(=S)N/N=C/c1ccc(O)cc1O`, the AC50 under setting [1] is 0.178 µM [falling, full curve, poor fit] and the concentration at half-maximal activity (AC50) under setting [2] is 11.2 µM [rising, single point].
On to `Cc1ccc2nc(NC(=O)CSCc3ccccc3)sc2c1`, for which the half-maximal activity concentration (AC50) under setting [1] was 20.6 µM [falling, partial curve, poor fit].
With `CCc1ccc(C2=NN(C(C)=O)C(c3ccco3)C2)cc1` (stereo not drawn), the AC50 under setting [1] is 35.5 µM [falling, single point].
With `Nn1c(SCC(=O)Nc2ccc(F)cc2F)nnc1C1CCCCC1`, the half-maximal activity concentration (AC50) under setting [1] was 14.1 µM [falling, partial curve, poor fit].
On to `O=C(NCc1ccccc1)c1ccc(C2SCC(=O)N2Cc2ccccc2)cc1` (stereo not drawn), for which the AC50 under setting [2] was 18.4 µM [rising, single point].
As to `CCOC(=O)C1CCN(C2=NC(=O)/C(=C/c3ccccc3OC)S2)CC1`, under setting [1], the AC50 is 2.82 µM [falling, full curve].
Still for that read-out and setting: the figure for `CCn1cc(/C=C(\NC(=O)c2ccccc2OC)C(=O)NCCCN2CCOCC2)c2ccccc21` is 28.2 µM [falling, single point]; for `CC(=O)Nc1ccc(/C(C)=N/NC(=O)c2ccc(F)cc2)cc1` it is 23.1 µM [falling, partial curve, poor fit].
Regarding `COc1ccc2c(c1)CC/C(=C/c1ccncc1)C2=O`, the AC50 under setting [1] was 20.6 µM [falling, single point].
Still for that read-out and setting: the figure for `CCc1ccc(C(=O)N/N=C(\C)c2cccnc2)s1` is 7.94 µM [falling, partial curve, poor fit]; for `O=C(NC(=S)N1CCCCCC1)c1ccccc1` it is 17.8 µM [rising, partial curve, poor fit].
On the same count and under the same terms, the figure for `COc1ccccc1/C=C1\SC(=S)N(CCC(=O)Nc2nnc(C)s2)C1=O` is 11.2 µM [falling, single point]; for `Cc1ccc(CNC(=O)C2CC(c3cc(C(F)(F)F)cc(C(F)(F)F)c3)=NO2)o1` (stereo not drawn) it is 20 µM [rising, single point].
The same measure, in the same setting: the figure for `C/C(Cn1nc([N+](=O)[O-])cc1C)=N\NC(=O)COc1ccccc1[N+](=O)[O-]` is 18.4 µM [rising, partial curve].
Regarding `O=C(CSC(=S)N1CCCC1)c1cc(Br)cc(Br)c1O`, the AC50 was 35.5 µM [falling, single point] under setting [1] and 35.5 µM [falling, single point] under setting [2].
As for `COc1ccccc1N1C(=O)CC(N2CCc3ccccc32)C1=O` (stereo not drawn), under setting [1], the AC50 was 0.411 µM [falling, full curve, poor fit].
In the case of `Cc1ccc(NC(=O)CC(C)S(=O)(=O)c2ccc3c(c2)NC(=O)CO3)c(Cl)c1` (stereo not drawn), the AC50 reads like this: under setting [1], 35.5 µM [falling, single point]; under setting [2], 22.4 µM [rising, partial curve, poor fit].
With `CCn1c(=N)n(CC(=O)c2ccc(Br)s2)c2ccccc21`, under setting [1], the AC50 is 1.58 µM [rising, partial curve, poor fit].
On the same count and under the same terms, the figure for `Cc1[nH]n(-c2ccccc2)c(=O)c1C(=O)c1ccccc1` is 35.5 µM [falling, single point].
With `Cc1ccc(-c2csc(Nc3ccc(C(=O)O)cc3)[n+]2Cc2ccccc2)cc1`, under setting [1], the AC50 is 15.8 µM [falling, partial curve].
On the same count and under the same terms, the same measure for `CCOC(=O)c1c(CN(CC)CC)oc2cc(Br)c(O)cc12`: 32.6 µM [rising, single point]; for `Cc1ccc(C)c(-c2csc(NC(=O)c3cnccn3)n2)c1`: 0.794 µM [rising, full curve, poor fit]; for `Cc1cc(C)n(C(=O)CCC2COc3ccccc3O2)n1` (stereo not drawn): 13 µM [rising, partial curve, poor fit].
Still for that read-out and setting: the figure for `Cc1csc(Nc2ccccc2)[n+]1C` is 2.82 µM [rising, partial curve]; for `CCc1c(C(=O)NNC(=S)NC2CCCCC2)csc1C` it is 3.16 µM [falling, partial curve].
The same measure, in the same setting: the same measure for `COc1cc(C(=O)N=c2sc3ccccc3n2C)cc(OC)c1OC`: 10 µM [rising, partial curve, poor fit]; for `O=C(N/N=C1\CCc2ccccc21)c1ccccc1O`: 0.146 µM [falling, full curve]; for `CCCCCCC(=O)Nc1nc(C)c(-c2csc(Nc3cccc(OC)c3)n2)s1`: 12.6 µM [falling, partial curve, poor fit].
For `N/C(CSc1ccc(Cl)cc1)=N\S(=O)(=O)c1ccc(Cl)cc1`, the half-maximal activity concentration (AC50) under setting [1] was 17.8 µM [falling, partial curve, poor fit].
Still for that read-out and setting: the same measure for `CCOc1ccccc1COC(=O)c1cccc(-n2cnnn2)c1`: 7.08 µM [falling, full curve, poor fit].
